# Measured values published in PubChem BioAssay AID651664 (NMMLSC, 2012).
# Among all 1,800 compounds or so, fewer than 10 were called active.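 How the source made its calls: active means inhibition of granule release above a set limit; inactive means the rest.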 The list shows a part of the results.
# Test: LAMP-1 surface externalization blockers in TALL-104 cells – cell-based, flow cytometry, validation set (AID 651664)
# Details: TALL-104 LAMP-1 externalization, at 15.2 µM, hits give high values, stimulated with thapsigargin and PMA
row,SMILES,inhibition
1,O=C(N/N=C/c1cccc([N+](=O)[O-])c1)C1CC(=O)N(c2ccc(Cl)cc2)C1 (configuration not stated),inactive: 1.4%
2,C=CCNc1nc(-c2ccc(Cl)cc2)cs1,inactive: 2.2%
3,CCOC(=O)c1c(C)oc2c1c1c(c3ccccc32)OCN(Cc2ccccn2)C1,inactive: 0.1%
4,CN(C)C=NC1=NN(c2cccc(C(F)(F)F)c2)CC1,inactive: 3.5%
5,N/C(=N\OS(=O)(=O)c1ccccc1)c1ccncc1,inactive: -2.3%
6,c1ccc(-n2c(SCC3CCCCO3)nnc2-c2cnccn2)cc1 (configuration not stated),inactive: 1.1%
7,COC(=O)c1c(C(C)=O)cnc2ccc(Br)cc12,inactive: -0.8%
8,CCN1C(=O)C(C)S/C1=N\S(=O)(=O)c1ccc(Cl)s1 (configuration not stated),inactive: -2.2%
9,CCOC(=O)C1CCN(C=Nc2cc(C)on2)CC1,inactive: 5.4%
10,COc1cc2[nH]c3c(N4CCN(c5ccccn5)CC4)ncnc3c2cc1OC,inactive: 4.3%
11,CC(=O)N1CCN(c2ccc([N+](=O)[O-])c(NCC3CCCO3)c2)CC1 (configuration not stated),inactive: -1.3%
12,Cc1cnc(C(=O)Nc2ccccc2F)cn1,inactive: -1.1%
13,CCCOC(=O)CN1C(=O)c2ccccc2C1=O,inactive: 0.3%
14,O=C(Nc1ccccc1)N(C1=NCCCCS1)c1ccccc1,inactive: -1.2%
15,Cc1cc2c(c(=O)n1C)C(C(C)C)C(C#N)=C(N)O2 (configuration not stated),inactive: 0.7%
16,FC(F)(F)c1cccc(NC(=S)N2CCN(c3cccc(C(F)(F)F)c3)CC2)c1,inactive: -4.7%
17,N#Cc1ccc(C(=O)Nc2ccc(S(=O)(=O)NC3=NCCCCC3)cc2)cc1,inactive: 4.4%
18,O=C(c1ccc(S(=O)(=O)N2CCCCCC2)cc1)N1CCC(CN2C(=O)c3cccc4cccc(c34)C2=O)CC1,inactive: 0.6%
19,Cc1cc(/C=N\NC(=O)c2cccs2)c(C)n1-c1ccc2ncccc2c1,inactive: -1.6%
20,COc1cc(C2N=C(c3ccccc3)NO2)cc(Br)c1O (configuration not stated),inactive: 0.8%
21,O=C(CSc1ccccn1)N1CCN(C(=O)CSc2ccccn2)CC1,inactive: 0.4%

row,SMILES,inhibition
1,O=C(CSc1nc2ccccc2[nH]1)Nc1cc(C(F)(F)F)ccc1N1CCOCC1,inactive: -2.8%
2,OCCCN1c2ccccc2Nc2nnc(-c3ccccc3)cc21,inactive: -0.6%
3,COCCn1c(SCc2nc3cc(OC)c(OC)cc3c(=O)[nH]2)nnc1-c1ccncc1,inactive: 2%
4,CCOC(=O)c1sc(NC(=O)C(CC)Sc2nc3ccccc3[nH]2)nc1C (configuration not stated),inactive: -2.5%
5,CCN(CC(=O)NC(=O)NC1CCCCC1)Cc1nc2ccccc2c(=O)[nH]1,inactive: -0.9%
6,CC(C)(C)OC(=O)NCCCC(CCCNC(=O)OC(C)(C)C)C(=O)O,inactive: -2.1%
7,N#C/C(=C1\CCCN1)c1nc2ccccc2c(=O)[nH]1,inactive: -2.4%
8,O=C(/C=C/Nc1ccccc1Br)c1ccccn1,inactive: 4.8%
9,CC(C)(C(N)=O)N1CCN(c2ncc(C(F)(F)F)cc2Cl)CC1,inactive: -2.7%
10,COc1ccccc1Nc1nnc(SCC(=O)c2cc(C)n(CC3CCCO3)c2C)s1 (configuration not stated),inactive: -2.7%
11,O=C(Nc1ccc2c(c1)Cc1ccccc1-2)c1cc2ccccc2o1,inactive: 1.7%
12,Cc1cc(NC(=O)CSc2nnc(-c3ccc(Br)o3)n2Cc2ccccc2)no1,inactive: -2.5%
13,COc1ccc(CCNC(=O)COC(=O)c2cnccn2)cc1,inactive: 6.8%
14,CCOc1ccc2nc(NC(=O)CCC(=O)c3cccs3)sc2c1,inactive: 4%
15,Cc1sc2ncnc(OCC(=O)Nc3ccc4c(c3)OCCO4)c2c1C,inactive: -3.2%
16,O=C(NCc1ccccn1)C1CCN(S(=O)(=O)c2ccccc2)CC1,inactive: -2.7%
17,O=C(Nc1ccc(N2CCN(C(=O)c3ccco3)CC2)c(Cl)c1)c1cc2ccccc2o1,inactive: 3.3%
18,Cc1cccnc1NC(=O)Nc1ccc(F)cc1,inactive: -5.6%
19,Oc1ccc(Br)cc1-c1cc(-c2ccc(Cl)cc2)n[nH]1,inactive: 0.6%
20,CC1=NN(c2nc(-c3ccc(C)cc3)cs2)C(=O)C1N=Nc1ccc2ccccc2c1 (configuration not stated),inactive: -1.8%
21,C=CCn1c(NCCc2ccccc2)nc2c1c(=O)n(C)c(=O)n2C,inactive: -4.1%

# Sorted by formula weight (falling): four of the compounds above.
row,SMILES,inhibition
6,CC(C)(C)OC(=O)NCCCC(CCCNC(=O)OC(C)(C)C)C(=O)O,inactive: -2.1%
16,O=C(NCc1ccccn1)C1CCN(S(=O)(=O)c2ccccc2)CC1,inactive: -2.7%
21,C=CCn1c(NCCc2ccccc2)nc2c1c(=O)n(C)c(=O)n2C,inactive: -4.1%
13,COc1ccc(CCNC(=O)COC(=O)c2cnccn2)cc1,inactive: 6.8%

# Carrying on:

row,SMILES,inhibition
1,COC(=O)c1sc(NC(=O)COc2ccc(OC)cc2)nc1C,inactive: 13.2%
2,CCC(=O)Nc1cccc(C(=O)/C=C/c2ccccc2)c1,inactive: -0.3%
3,O=C(O)C1C2C=CC3(CN(CC(O)COc4ccccc4)C(=O)C13)O2 (configuration not stated),inactive: -2.6%
4,Cc1cc(S(=O)(=O)N2CC(=O)N(CCc3ccccc3)C(=O)C2)ccc1F,inactive: -1.5%
5,S=c1[nH]nc(-c2ccccc2Cl)n1CC1CCCO1 (configuration not stated),inactive: -1.9%
6,Cc1ccccc1-n1c(C)cc(/C=N/Nc2ccc([N+](=O)[O-])cn2)c1C,inactive: -1.3%
7,CCOC(=O)C1=C(CNCc2ccccc2Cl)NC(=O)NC1c1ccc2c(c1)OCO2 (configuration not stated),inactive: -3.4%
8,NC(=O)N1OCC2COc3ccc4ccccc4c3C21 (configuration not stated),inactive: 4.4%
9,Nc1c(C(=O)NCC2CCCO2)sc(=S)n1-c1ccccc1 (configuration not stated),inactive: 0.7%
10,CC(C)[C@H](NC(=O)NCCc1ccccc1)C(=O)O,inactive: -2.6%
11,CCN1CCCC1CNC(=O)Cn1cccc1C(=O)c1ccccc1 (configuration not stated),inactive: 0.5%
12,COCCCNC(=O)C1CCC(=O)N1Cc1ccccc1Cl (configuration not stated),inactive: 0.7%
13,CCOC(=O)C1=C(C)N=c2s/c(=C\C(=O)OC)c(=O)n2C1c1ccc(OC)cc1 (configuration not stated),inactive: -0.8%
14,C/C(=N/OC(=O)c1ccc(F)cc1)c1ccc(C)cc1,inactive: 0.7%
15,COC(=O)CN1C(=O)C(O)(CC(=O)c2ccc(C)o2)c2ccccc21 (configuration not stated),inactive: -1.9%
16,COC(=O)c1ccc(/C=C/C(=O)c2ccc(OC)c(OC)c2)cc1,inactive: 8.4%
17,CCOc1cc(/C=C(/C#N)C(=O)Nc2ccc(O)cc2)cc(Br)c1O,inactive: 0.7%
18,Cc1ccccc1-n1ccnc1SCC(=O)O,inactive: -0.9%
19,FC(F)(F)c1cnc2c(-c3ccc(Cl)cc3Cl)noc2c1,inactive: -2.4%
20,Cc1ccc(S(=O)(=O)N2CCCC(C(=O)NCCc3ccc4c(c3)OCO4)C2)cc1 (configuration not stated),inactive: -2.7%
